Measured values reported in PMC9885069 (Scientific Reports, 2023).

Test system: host cell gene expression in 02SF NPCs
Test: RNA sequencing and Ingenuity Pathway Analysis of uninfected NPCs
Format: cell-based, human
Conditions: uninfected 02SF NPCs, 10 μM, 72 h, of 12,433 expressed genes; for number of host cell genes significantly altered in expression: FDR corrected p ≤ 0.05

SMILES | fraction of host cell genes significantly altered in expression [%] | number of host cell genes significantly altered in expression
O=C1N[C@H]2[C@H](O)[C@H](O)[C@@H](O)C[C@@H]2c2cc(O)ccc21 [Compound 6, (2S,3R,4S,4aR,10bR)-2,3,4,9-Tetrahydroxy-1,3,4,4a,5,10b-hexahydrophenanthridin-6(2H)-one] | 2.1 | 256
O=C1N[C@H]2[C@H](O)[C@H](O)[C@@H](O)C[C@@H]2c2cc3c(cc21)OCO3 [Compound 2b, trans-dihydrolycoricidine, reference compound] | 62.5 | 7766
O=C1N[C@H]2[C@H](O)[C@H](O)[C@@H](O)C[C@@H]2c2cccc(O)c21 [Compound 8, (2S,3R,4S,4aR,10bR)-2,3,4,7-Tetrahydroxy-1,3,4,4a,5,10b-hexahydrophenanthridin-6(2H)-one] | 59.8 | 7433
COc1cccc2c1C(=O)N[C@H]1[C@H](O)[C@H](O)[C@@H](O)C[C@H]21 [Compound 7, (2S,3R,4S,4aR,10bR)-2,3,4-Trihydroxy-7-methoxy-1,3,4,4a,5,10b-hexahydrophenanthridin-6(2H)-one] | 0.3 | 33
